Results: patent publication US20240025992A1
Results are given in words; binding and its absence hold for the method and conditions named. Some results given as binding are weak or reduced against the parent protein; the word gives no strength.

Target: DL3W36, human DLL3 EGF6 domain+C-term ECD sequence, HSA Fusion and C-term 6 His tag (human)
Experiment: MSD plate binding assay on coated DLL3 domain-HSA fusions

- binding: binds
B1: DL3B572 (Fc fusion, not shown: a dimerising Fc or GST)
scFv: EVQLVQSGAEVKKPGASVKVSCKASGYTFTTYYIHWVRQAPGQGLEWMGIIDPSGGRTSYAQKFLGRVTMTRDTSTSTVYMELRSLRSEDTAVYYCARGGDGTWYYGMDVWGQGTTVTVSSGGSEGKSSGSGSESKSTGGSDIVMTQSPSFLSASVGDRVTITCRASQGISNYLAWYQQKPGKAPKLLIYAASTLQSGVPSRFSGSGSGTEFTLTISSLQPEDFATYYCQQLNSYPLTFGGGTKVEIK
